{"sequences": {"note": "By UniProt entry, the sequences of proteins in these tests, tags left out. Residues count along the entry.", "UniProt P05067, 672-713 limits assumed": "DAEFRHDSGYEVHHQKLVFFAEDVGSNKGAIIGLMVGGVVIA"}, "source": "patent US11911436B2", "about": "“Amphiphilic peptide chaperones and methods of use” (priority 2021, dated 2024)", "key": {"[1]": {"tested_on": "wild-type C. elegans (N2)", "assay": "C. elegans N2 lifespan assay at 20° C. with peptide feeding", "assay_type": "in vivo", "settings": "N2 worms", "experimental": "A schematic of an assay of C. elegans N2 lifespan at 20° C. is shown (FIG. 10A). This involved peptide treatment (50 μg) with E. coli OP50 as a food source. Plates were changed every second day with 50 μg fresh peptide and OP50. Scoring of survival was done every day to the last day of survival. 50 mM FUdR was added in experimental plates between D1 and D5 to prevent progeny production."}, "C. elegans (N2 strain)": {"tested_on": "C. elegans (N2 strain)", "assay": "Thermotolerance assay, continuous heat stress at 35° C.", "assay_type": "in vivo", "settings": "N2 worms", "experimental": "The lifespan of wild type C. elegans with and without peptide at a restrictive temperature was measured.\nA schematic representation of the thermotolerance assay used is shown (FIG. 11A). 24 hours of 50 μg peptide treatment at 20° C. of a synchronized population of wild type C. elegans was followed by a continuous heat stress at 35° C. Worms were scored every two hours for 24 hours for survival."}, "CL2006 C. elegans [2]": {"tested_on": "CL2006 C. elegans", "assay": "CL2006 lifespan at 20° C. (paralysis and death model)", "assay_type": "in vivo", "settings": "CL2006 worms, 50 μg peptide", "experimental": "CL2006 C. elegans were used as a paralysis and death model. Worms are maintained at 15° C., with adult onset paralysis induced at 20° C.\n50 μg CPAMC and CPPRAMC peptide or controls were added to CL2006 worms, and the fraction left alive over time at the restrictive temperature of 20° C. was quantified (FIG. 12). […] (FIG. 12)."}, "CL4176 C. elegans": {"tested_on": "CL4176 C. elegans", "assay": "CL4176 Aβ-induced paralysis and survival assay", "assay_type": "in vivo", "settings": "CL4176 worms", "experimental": "CL4176 C. elegans is a temperature sensitive strain. Worms are maintained at 15° C. and shifted to increased temperature to cause Aβ-induced paralysis in adults. This has been used as a C. elegans model of Alzheimer's disease.\nA scheme of a paralysis assay with CL4176 worms is shown (FIG. 13A). Peptide treatment began on CL4176 embryos and continued throughout the experiment. After 2 days at 15° C., the temperature was increased to the restrictive temperature of 25° C. Worms were scored for survival and paralysis.\nExample images of paralyzed and non-paralyzed worms are shown (FIG. 13C)."}, "[3]": {"tested_on": "C. elegans wild-type (N2 strain)", "assay": "Paraquat (PQ)-induced oxidative stress survival", "assay_type": "in vivo", "settings": "five-day old N2 worms, 50 μg peptide 24 hours, 50 mM PQ", "experimental": "Five-day old N2 worms were pretreated with 50 μg peptide for 24 hours and subjected to 50 mM PQ. The survival of the worms was monitored every hour under a microscope until the end of survival. […] The median survival value (50% survival) in CPPRAMC, CPAMC, and CP-SC (control) peptides corresponds to 9.6 h, 8.9 h and 5.9 h, respectively, as compared to vehicle control (5.5 h) (FIG. 14)."}, "ARPE-19 cells [4]": {"tested_on": "ARPE-19 cells", "assay": "Sodium iodate cytotoxicity, cell viability imaging", "assay_type": "cell-based", "settings": "7.5 mM sodium iodate, 24 hours", "experimental": "Sodium iodate is a chemical that induces oxidative stress and cell death. The ability of CPPRAMC peptide to block the cytotoxic action of sodium iodate was investigated. ARPE-19 cells cultured on a 96-well plate were treated with 7.5 mM sodium iodate and/or CPPRAMC peptide for 24 hours. At the end of the incubation, cell viability imaging was done using the EarlyTox cell integrity kit (Molecular Devices, Sunnyvale, Calif.) (FIG. 6A). The percentage of dead cells in each sample was calculated from the live/dead cell imaging data using the Softmax Pro software (FIG. 6B).\nThe ability of Myr-CPAMC peptide to block the cytotoxic action of sodium iodate was also investigated. Authenticated ARPE-19 cells cultured on a 96-well plate were treated with 7.5 mM sodium iodate and/or Myr-CPAMC peptide for 24 hours. At the end of the incubation, cell viability imaging was done using the EarlyTox cell integrity kit (Molecular Devices, Sunnyvale, Calif.) (FIG. 7A). The percentage of dead cells in each sample was calculated from the live/dead cell imaging data using the Softmax Pro software (FIG. 7B)."}, "ARPE-19 cells [5]": {"tested_on": "ARPE-19 cells", "assay": "Sodium iodate-induced oxidative stress, DCFH-DA staining", "assay_type": "cell-based", "settings": "7.5 mM sodium iodate, 24 hrs", "experimental": "The ability of CPPRAMC and CPAMC to suppress sodium iodate-induced oxidative stress in ARPE-19 cells was also assessed. ARPE-19 cells seeded on a 96-well plate were treated with 7.5 mM of sodium iodate and peptides in 100 μl of serum-free DMEM/F12 media for 24 hrs. The cells were then stained with 10 μM DCFH-DA for 30 min at 37° C. in the dark and the cells were observed under the EVOS FL Auto2 imaging system (Thermo Fisher Scientific, Waltham, Mass., USA) with 10× magnification."}, "ARPE-19 cells [6]": {"tested_on": "ARPE-19 cells", "assay": "Aβ1-42-induced cytotoxicity, cell viability imaging", "assay_type": "cell-based", "settings": "Aβ1-42:peptide 1:1 and 1:2, preincubated 2 hours at 37° C., 24 hours on cells"}, "human Aβ1-42 peptide": {"molecular_target": "T1, human Aβ1-42 peptide (Homo sapiens, UniProt P05067)", "T1 construct": "human Aβ1-42 peptide", "assay": "β-amyloid fibril formation by TEM", "assay_type": "biochemical", "settings": "37° C., PBS pH 7.4, up to three days"}, "Mouse macrophages": {"tested_on": "Mouse macrophages", "assay": "LPS-induced IL6 in mouse macrophages (ELISA)", "assay_type": "cell-based", "settings": "24 h after treatment"}, "[7]": {"tested_on": "HEK293 IL-6 reporter cells", "assay": "IL-6 signaling, STAT3-stimulated SEAP reporter", "assay_type": "cell-based", "settings": "human recombinant IL-6 and peptides, 1 hr", "experimental": "HEK293 IL-6 reporter cells were treated with human recombinant IL-6 and the peptides for 1 hr. The STAT3-stimulated SEAP activity in the culture supernatant was measured using QUANTI-Blue solution (InvivoGen) (FIG. 19B)."}, "CL2006 C. elegans [8]": {"tested_on": "CL2006 C. elegans", "assay": "Thioflavin T staining of Aβ deposits", "assay_type": "in vivo", "settings": "treated vs untreated CL2006"}}, "note": "Part of at least one peptide drawing is inferred or uncertain, most often the ends. Marks after values point to notes of the source that are not given here. Square brackets hold non-standard residues; d marks the D form. Peptide text beside a SMILES is read from it. dNMeL = CN[C@H](CC(C)C)C(=O)O", "data": [{"smiles": "CC[C@@H](C)[C@@H](NC(=O)[C@H](NC(=O)[C@@H](Cc1ccccc1)NC(=O)[C@@H](CC(C)C)NC)C(C)C)C(=O)N[C@H](Cc1ccccc1)C(=O)N[C@H](CC(C)C)C(=O)N[C@@H](C(=O)N[C@H](Cc1c[nH]cn1)C(=O)N[C@H](Cc1ccccc1)C(=O)N[C@H](CO)C(=O)N1CCC[C@@H]1C(=O)NCC(=O)N[C@H](CCCNC(=N)N)C(=O)N[C@H](CC(=O)O)C(=O)N[C@H](CCC(=O)O)C(=O)N[C@H](CC(=O)O)C(=O)N[C@H](CCCCN)C(=O)N[C@H](CC(=O)O)C(=O)N[C@H](CCC(=O)O)C(=O)N[C@H](CCCCN)C(N)=O)C(C)C", "note": "[CPPRAMC, CH3-lfviflvhfspgrdedkdek-NH2] (H-[dNMeL][dF][dV][dI][dF][dL][dV][dH][dF][dS][dP]G[dR][dD][dE][dD][dK][dD][dE][dK]-NH2; N-terminus and C-terminus assumed)", "values": [{"measurement": "Median Lifespan (Days ± SE)", "setting": "[1]; 50 μg peptide with E. coli OP50", "value": "19.57 ± 0.25", "unit": "days"}, {"measurement": "Increase in median survival (%)", "setting": "[1]; 50 μg peptide, vs control", "value": "46* %"}, {"measurement": "% increase in survival", "setting": "C. elegans (N2 strain); 35° C., 50 μg peptide, vs control", "value": "51* %"}, {"measurement": "Median survival ± SE (hours at 35° C.)", "setting": "C. elegans (N2 strain); 24 hours 50 μg peptide at 20° C., then 35° C.", "value": "12.7 ± 0.3", "unit": "h"}, {"measurement": "Median survival ± SE (days at 20° C.)", "setting": "CL2006 C. elegans [2]", "value": "8.2 ± 0.30", "unit": "days"}, {"measurement": "% increase in survival", "setting": "CL2006 C. elegans [2]; vs control", "value": 19.1, "unit": "%"}, {"measurement": "delay of Aβ-induced paralysis", "setting": "CL4176 C. elegans; 25° C.", "value": "delay of CL4176 worm paralysis compared to controls"}, {"measurement": "% increase in median survival", "setting": "CL4176 C. elegans; 25° C., vs control", "value": 18, "unit": "%"}, {"measurement": "Median survival Hours ± SE", "setting": "CL4176 C. elegans; 2 days at 15° C., then 25° C.", "value": "51.9 ± 0.6", "unit": "h"}, {"measurement": "median survival value (50% survival)", "setting": "[3]", "value": 9.6, "unit": "h"}, {"measurement": "percentage of dead cells with sodium iodate and peptide", "setting": "ARPE-19 cells [4]", "value": "blocks the cytotoxic action of sodium iodate on ARPE-19 cells"}, {"measurement": "oxidative stress by DCFH-DA staining", "setting": "ARPE-19 cells [5]", "value": "reduce or block the oxidative stress induced by sodium iodate"}, {"measurement": "percentage of dead cells with Aβ1-42 and peptide", "setting": "ARPE-19 cells [6]", "value": "protects the ARPE-19 cells from Aβ1-42-induced cytotoxicity"}, {"measurement": "Aβ1-42 oligomerization and fibrillization (TEM)", "setting": "human Aβ1-42 peptide", "value": "blocks Aβ1-42 oligomerization and fibrillization in vitro"}, {"measurement": "LPS-induced inflammatory response (IL6 in supernatant)", "setting": "Mouse macrophages", "value": "LPS-induced inflammatory response is suppressed"}, {"measurement": "IL-6 signaling (STAT3-stimulated SEAP activity)", "setting": "[7]", "value": "IL-6 signaling is also suppressed"}, {"measurement": "Aβ deposits (Thioflavin T staining)", "setting": "CL2006 C. elegans [8]", "value": "reduction of Aβ deposits"}]}]}
